Reference: US7341836B2, “Modified cyclic nucleotide gated ion channels” (The Regents of the University of Colorado, priority 2001, dated 2008)

B1: Δ61-90/C460W/E583M: modified rat olfactory cyclic nucleotide-gated ion channel containing the Δ61-90/C460W/E583M mutation, SEQ ID NO:7 (protein, listed as Rattus norvegicus)
chain: MMTEKSNGVKSSPANNHNHHPPPSIKANGKDDHRAGSRPQSVAADDDTSPELQRLAEMDTPRPDSFLERFRGPELQTVTTHQGDDKGGKDGEGKGTKKKFELFVLDPAGDWYYRWLFVIAMPVLYNWCLLVARACFSDLQRNYFVVWLVLDYFSDTVYIADLIIRLRTGFLEQGLLVKDPKKLRDNYIHTLQFKLDVASIIPTDLIYFAVGIHSPEVRFNRLLHFARMFEFFDRTETRTSYPNIFRISNLVLYILVIIHWNACIYYVISKSIGFGVDTWVYPNITDPEYGYLAREYIYCLYWSTLTLTTIGETPPPVKDEEYLFVIFDFLIGVLIFATIVGNVGSMISNMNATRAEFQAKIDAVKHYMQFRKVSKDMEAKVIKWFDYLWTNKKTVDEREVLKNLPAKLRAEIAINVHLSTLKKVRIFQDWEAGLLVELVLKLRPQVFSPGDYICRKGDIGKEMYIIKEGKLAVVADDGVTQYALLSAGSCFGEISILNIKGSKMGNRRTANIRSLGYSDLFCLSKDDLMEAVTEYPDAKKVLEERGREILMKMGLLDENEVAASMEVDVQEKLEQLETNMDTLYTRFARLLAEYTGAQQKLKQRITVLETKMKQNHEDDYLSDGINTPEPTAAE
B2: WT: wild-type rat olfactory cyclic nucleotide gated channel α subunit, amino acid sequence SEQ ID NO:8 (protein, listed as Rattus norvegicus)
chain: MMTEKSNGVKSSPANNHNHHPPPSIKANGKDDHRAGSRPQSVAADDDTSPELQRLAEMDTPRRGRGGFQRIVRLVGVIRDWANKNFREEEPRPDSFLERFRGPELQTVTTHQGDDKGGKDGEGKGTKKKFELFVLDPAGDWYYRWLFVIAMPVLYNWCLLVARACFSDLQRNYFVVWLVLDYFSDTVYIADLIIRLRTGFLEQGLLVKDPKKLRDNYIHTLQFKLDVASIIPTDLIYFAVGIHSPEVRFNRLLHFARMFEFFDRTETRTSYPNIFRISNLVLYILVIIHWNACIYYVISKSIGFGVDTWVYPNITDPEYGYLAREYIYCLYWSTLTLTTIGETPPPVKDEEYLFVIFDFLIGVLIFATIVGNVGSMISNMNATRAEFQAKIDAVKHYMQFRKVSKDMEAKVIKWFDYLWTNKKTVDEREVLKNLPAKLRAEIAINVHLSTLKKVRIFQDCEAGLLVELVLKLRPQVFSPGDYICRKGDIGKEMYIIKEGKLAVVADDGVTQYALLSAGSCFGEISILNIKGSKMGNRRTANIRSLGYSDLFCLSKDDLMEAVTEYPDAKKVLEERGREILMKEGLLDENEVAASMEVDVQEKLEQLETNMDTLYTRFARLLAEYTGAQQKLKQRITVLETKMKQNHEDDYLSDGINTPEPTAAE
B3: C460W/E583M: modified rat olfactory cyclic nucleotide-gated ion channel containing the C460W/E583M mutation, SEQ ID NO:6 (protein, listed as Rattus norvegicus)
chain: B2 chain with C460W, E583M
B4: E583M: modified rat olfactory cyclic nucleotide-gated ion channel containing the E583M mutation, SEQ ID NO:5 (protein, listed as Rattus norvegicus)
chain: B2 chain with E583M

System: rat olfactory CNG channel α subunit
Assay: Excised inside-out patch recordings, cyclic nucleotide dose-response of CNG channel constructs
Format: biochemical
Conditions: Hill coefficient
Method: As described in greater detail herein, the effects of modifications to CNG channels were assessed using the Hill equation, I/Imax=[cNMP]^N/([cNMP]^N+K1/2^N), where I/Imax is the fraction of maximal current, cNMP represents cyclic nucleotide, K1/2 is the concentration that gives half-maximal current, and N is the Hill coefficient, an index of cooperativity. I/Imax^cGMP/Imax^cAMP is the current induced by saturating cGMP divided by the current induced by saturating cAMP. Data (mean±standard deviation of three experiments) were obtained from excised membrane patches using standard patch clamp techniques.
To assess the cyclic nucleotide sensitivity of different CNG channel constructs, excised, inside-out patch recordings were made at room temperature (20-21° C.) using an Axopatch-200A patch clamp amplifier (Axon Instruments Inc.). Pipettes were pulled from borosilicate glass and heat polished. Pipettes were lowered onto the cells and gigaohm seals were formed. Patches were excised by shearing cells from the pipette with a jet of liquid. Ionic currents were elicited by 250 ms pulses to membrane potentials of +50 and −50 mV from a holding potential of 0 mV. Current records were sampled at five times the filter setting and stored on an IBM compatible computer. Records were corrected for errors due to series resistance (pipette resistance was 4.1 ±0.1 MΩ). Both the pipette and bath solutions contained (mM): 130 NaCl, 2 HEPES, 0.02 EDTA, and 1 EGTA, pH 7.6. Cyclic nucleotide-induced currents were obtained from the difference between currents in the presence and absence of cyclic nucleotides. Dose response curves for cAMP and cGMP were obtained at +50 and −50 mV in the same patch. The effects of the modifications were assessed using the Hill equation, I/Imax=[cNMP]^N/([cNMP]^N+K1/2^N), where I/Imax is the fraction of maximal current, cNMP represents cyclic nucleotide, K1/2 is the concentration that gives half-maximal current, and N is the Hill coefficient, an index of cooperativity. K1/2 and N for cAMP were 36±5 μM, 10±2 μM, 1.0±0.3 μM, and […] for WT, E583M, C460/E583M, and Δ61-90/C460W/E583M channels, respectively (See, Rich et al., J. Gen. Physiol. [2001], supra).
The cyclic nucleotide sensitivity of the C460W/E583M CNG channel was assessed in excised, inside-out patches as known in the art (See, Rich et al. [2001], supra). K1/2 and N were 1.1±0.3 μM and 2.1±0.4 at +50 mV; and 1.0±0.3 μM and 2.0 ±0.3 at −50 mV (n=11). With these values, the cAMP concentration could be calculated from currents measured in perforated patch experiments (Rich et al. Proc. Natl. Acad. Sci. [2001], supra).

Molecule | N^cAMP (+50 mV) | N^cGMP (+50 mV) | N^cAMP (−50 mV) | N^cGMP (−50 mV)
B1 | 2.1 ± 0.1 | 1.8 ± 0.2 | 2.2 ± 0.1 | 2.6 ± 0.2
B2 | 2.2 ± 0.1 | 2.3 ± 0.1 | 2.2 ± 0.1 | 2.5 ± 0.4
B3 | 2.7 ± 0.2 | 2.8 ± 0.3 | 2.2 ± 0.3 | 2.7 ± 0.1
B4 | 2.4 ± 0.2 | 2.4 ± 0.12 | 2.2 ± 0.1 | 1.9 ± 0.2

Positions count from the first letter of the chain named. Names and notes keep the numbering of the source.
